Experimental data as given in patent publication US20250115597A1, “TYK2 INHIBITORS AND COMPOSITIONS AND METHODS THEREOF” (LYNK PHARMACEUTICALS CO. LTD., priority 2021, published 2025).
The match of structure and compound is tentative.

Chains of the proteins cited; added tags and fusions are not shown.
UniProt P29597, whole entry P760L: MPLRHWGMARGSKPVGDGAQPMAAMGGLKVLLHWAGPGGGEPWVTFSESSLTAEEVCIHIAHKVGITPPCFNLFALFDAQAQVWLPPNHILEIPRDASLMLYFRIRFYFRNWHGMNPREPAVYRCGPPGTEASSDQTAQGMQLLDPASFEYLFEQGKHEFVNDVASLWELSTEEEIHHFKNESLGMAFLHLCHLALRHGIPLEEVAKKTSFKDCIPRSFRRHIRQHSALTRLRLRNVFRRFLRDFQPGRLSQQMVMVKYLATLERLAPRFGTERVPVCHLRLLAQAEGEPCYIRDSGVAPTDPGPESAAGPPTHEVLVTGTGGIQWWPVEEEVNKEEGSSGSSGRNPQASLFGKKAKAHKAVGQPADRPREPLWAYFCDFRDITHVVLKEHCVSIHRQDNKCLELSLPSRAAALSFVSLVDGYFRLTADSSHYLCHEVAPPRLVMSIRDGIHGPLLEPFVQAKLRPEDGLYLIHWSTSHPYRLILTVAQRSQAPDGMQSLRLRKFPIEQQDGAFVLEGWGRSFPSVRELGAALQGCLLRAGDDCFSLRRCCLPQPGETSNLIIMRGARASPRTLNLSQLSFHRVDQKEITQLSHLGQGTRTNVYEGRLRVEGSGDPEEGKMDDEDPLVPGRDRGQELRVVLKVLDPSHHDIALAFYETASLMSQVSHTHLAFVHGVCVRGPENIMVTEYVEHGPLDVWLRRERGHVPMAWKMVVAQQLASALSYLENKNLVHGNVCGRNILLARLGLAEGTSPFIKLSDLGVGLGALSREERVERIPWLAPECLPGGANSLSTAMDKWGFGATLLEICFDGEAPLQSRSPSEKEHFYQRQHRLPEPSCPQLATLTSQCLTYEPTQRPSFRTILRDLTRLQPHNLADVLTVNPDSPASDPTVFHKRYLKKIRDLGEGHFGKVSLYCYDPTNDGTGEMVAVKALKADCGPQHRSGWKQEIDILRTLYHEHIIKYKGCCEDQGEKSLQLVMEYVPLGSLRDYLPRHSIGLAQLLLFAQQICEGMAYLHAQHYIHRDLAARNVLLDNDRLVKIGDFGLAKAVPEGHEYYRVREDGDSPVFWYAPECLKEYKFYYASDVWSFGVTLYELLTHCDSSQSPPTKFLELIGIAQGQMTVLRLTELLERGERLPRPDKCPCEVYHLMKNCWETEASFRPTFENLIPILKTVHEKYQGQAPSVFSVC

Biological target: Ba/F3-FL-TYK2-P760L cells (Homo sapiens, UniProt P29597, P760L, cells depend on it)
Assay: Anti-proliferative assay, Ba/F3-FL-TYK2-P760L cells (Cell-Titer Glo)
Assay type: cell-based
Details: read-out: BaF3-FL-T2P760L IC50, 72 h

SMILES	GI50
[2H]C([2H])([2H])NC(=O)c1cnc2cc1Nc1cc(cc(-c3ccn(C4CC4)n3)c1OC)COCc1nc(ccc1F)N2	138 nM
[2H]C([2H])([2H])NC(=O)c1cnc(NC(=O)C2CC2)cc1Nc1cn(CCOC)c2ccn(C(C)C(F)(F)F)c(=O)c12 (single isomer, unassigned)	764 nM
